Data: PubChem BioAssay AID602313 (National Center for Advancing Translational Sciences (NCATS), 2012)
The whole screen tested about 390,000 compounds, of which about 760 (0.19%) were called active. This list was built around the results that the source calls inconclusive (neither active nor inactive); the mix of calls is not that of the screen. Calls follow the shape of the dose curve; as a rule, active = well fitted inhibition curve with a large enough effect; inconclusive = small, poorly fitted or top-dose-only effect; inactive = flat fitted curve, though single readings scatter. Potencies beside an inconclusive call are fits to weak or partial responses and may not hold up.

Test: qHTS for Inhibitors of Vif-A3F Interactions: qHTS; also: nearly all actives have a fitted effect of over 65% in size; as to activity, negative = active: % of control where 0% means no effect
Conditions: HeLa A3F-eYFP + Vif (tagged APOBEC3F with the HIV-1 protein that degrades it), YFP fluorescence increase; series mostly up to 46.1 µM; activity, negative = active: at the top concentration
Procedure, shortened: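 Fluorescence increase (Ex 488/Em 500-530) after overnight compound treatment at 37 deg C flags inhibition of Vif-driven A3F-eYFP loss in stable HeLa A3F-eYFP/Vif cells seeded overnight beforehand.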
Potency is read from the fitted curve at half-maximal effect.

Row | SMILES | Potency | activity, negative = active
1 | CC(C)(C)CC(C)(C)SSc1n[nH]c(=S)s1 | inconclusive: 35.5 µM [inhibitor, single point] | –
2 | CCOC(=O)c1cnc2ccc(OC)cc2c1Nc1ccc(N2CCN(C)CC2)cc1 | inconclusive: 35.5 µM [inhibitor, single point] | –
3 | CCOC(=O)C1=C(C)NC(C)=C(C(=O)OCC)C1/C=C/c1ccccc1 | inconclusive: 1.12 µM [inhibitor, full curve, poor fit] | –
4 | COc1cccc(NC(=O)CN(C)C(=O)C(C)Sc2ccccc2)c1 (centres undefined) | inconclusive: 35.5 µM [inhibitor, single point] | –
5 | CCOc1c(C)cnc2c1c(=O)n(Cc1c(F)cccc1Cl)c(=O)n2C | inconclusive: 2 µM [inhibitor, partial curve, poor fit] | –
6 | Brc1ccc2nc(SCCOc3ccccc3)[nH]c2c1 | inconclusive: 35.5 µM [inhibitor, single point] | –
7 | CCN(CC)S(=O)(=O)c1ccc(-c2csc(C)n2)cc1 | – | inactive: -1.74%
8 | CSc1nnc(C)c(/C=C/Nc2ccc(C)cc2)n1 | inconclusive: 31.6 µM [inhibitor, single point] | –
9 | CC1=CC(=O)C(Sc2ccc(C)cc2)=CC1=O | inconclusive: 11.2 µM [inhibitor, partial curve, poor fit] | –
10 | COc1cc(/C=C/C=C2/CC/C(=C/C=C/c3ccc(O)c(OC)c3)C2=O)ccc1O | inconclusive: 35.5 µM [inhibitor, single point] | –
11 | O=C1Cc2ccccc2C(=O)N1Nc1ccccc1 | – | inactive: 2.1%
12 | CCCCCCn1c(=O)[nH]c2nc3cc(N)ccc3nc2c1=O | inconclusive: 35.5 µM [inhibitor, single point] | –
13 | COc1ccc(C(=O)C[n+]2cn(C(F)F)c3ccccc32)c(F)c1 | – | inactive: -3.6%
14 | Cn1c(N2CCN(S(=O)(=O)c3ccc(Cl)cc3)CC2)nc2ccccc21 | inconclusive: 3.16 µM [inhibitor, partial curve, poor fit] | –
15 | COc1ccc(S(=O)(=O)c2ccc(OC)c(OC)c2)cc1OC | inconclusive: 6.31 µM [inhibitor, single point] | –
16 | O=C1Cc2cc(O)ccc2O1 | inconclusive: 35.5 µM [inhibitor, single point] | –
17 | CC(C)CC(=O)NC(=S)N(Cc1ccccc1)Cc1ccccc1 | active: 25.1 µM | –
18 | O=C(N/N=C/C=C/c1ccccc1)c1cc(C2CC2)[nH]n1 | – | inactive: -14.6%
19 | CCCCOC(=O)c1ccc(NC(=O)/C(C#N)=C/c2ccc(-c3ccccc3)o2)cc1 | inconclusive: 15.8 µM [inhibitor, single point] | –
20 | Cn1c(=O)c([N+](=O)[O-])c(-n2ccnc2)c2ccccc21 | inconclusive: 5.62 µM [inhibitor, single point] | –
21 | Nc1c(C(=O)Nc2ccc(Cl)cc2F)sc2nc(-c3cccs3)ccc12 | inconclusive: 17.8 µM [inhibitor, single point] | –
22 | CCN(CC)CCN(C(=O)c1c(F)cccc1F)c1nc2cc(C)cc(C)c2s1 | inconclusive: 35.5 µM [inhibitor, partial curve, poor fit] | –

Row | SMILES | Potency | activity, negative = active
23 | COc1ccc(CN2CCN(C(=O)c3cccc4ccccc34)CC2)cc1OC | – | inactive: -2.11%
24 | CS(=O)(=O)c1cccc(C(=O)OCC(=O)Nc2ccc3c(c2)OCO3)c1 | inconclusive: 0.562 µM [inhibitor, partial curve, poor fit] | –
25 | Cc1ccc(C)c(NC(=O)Cn2c(=O)n(Cc3cccs3)c(=O)c3cccnc32)c1 | inconclusive: 28.2 µM [inhibitor, single point] | –
26 | CC1(C)COC(c2cccn2Cc2ccc(F)cc2Cl)=N1 | inconclusive: 15.8 µM [inhibitor, single point] | –
27 | CC(=O)Nc1ccc(C(=O)OCC(=O)N2CCCC2)cc1 | inconclusive: 25.1 µM [inhibitor, single point] | –
28 | Cc1cccc(CN2C(=O)/C(=C\c3ccc(C(=O)NCCN4CCOCC4)cc3)Sc3ccccc32)c1 | inconclusive: 15.8 µM [inhibitor, single point] | –
29 | COc1ccc(OC)c(N/C=C/C(=O)c2ccc(OC)c(OC)c2)c1 | inconclusive: 22.4 µM [inhibitor, single point] | –
30 | CC(C)Cc1ccc(C(C)CC2=CCC(CN(C)C)C2=O)cc1 (centres undefined) | – | inactive: 4.23%
31 | Cc1[nH]n(-c2nc(-c3cccc([N+](=O)[O-])c3)cs2)c(=O)c1C | inconclusive: 35.5 µM [inhibitor, single point] | –
32 | NC(=O)c1cc([N+](=O)[O-])ccc1NCc1cccnc1 | – | inactive: -10.2%
33 | O=C(O)c1ccc(N/N=C/C2=C(N3CCOCC3)C(=C\c3ccccc3)/CC2)cc1 | inconclusive: 7.08 µM [inhibitor, partial curve, poor fit] | –
34 | COc1ccc(N(CC(=O)N/N=C/c2ccc(-c3ccc([N+](=O)[O-])cc3)o2)S(=O)(=O)c2ccc(C)cc2)cc1Cl | inconclusive: 1.78 µM [inhibitor, partial curve, poor fit] | –
35 | O=C(CSC1CN(C(c2ccccc2)c2ccccc2)C1)N/N=C/c1ccc(Cl)cc1Cl | inconclusive: 35.5 µM [inhibitor, single point] | –
36 | C=CCn1c(NCc2ccc3c(c2)OCO3)nc2ccccc21 | – | inactive: 0.476%
37 | Cc1ccc(NC(=S)NCCC2=CCCCC2)cc1 | – | inactive: -9.93%
38 | Cc1ccc(-c2noc(C3CC(=O)N(c4ccc5c(c4)OCCO5)C3)n2)cc1 (centres undefined) | – | inactive: -6.82%
39 | CCNc1ccc(Br)cc(C(=O)/C=C/c2c(Cl)cccc2Cl)c1=O | inconclusive: 25.1 µM [inhibitor, single point] | –
40 | O=C(N/C=C/c1ccco1)Nc1cccc(Cl)c1 | inconclusive: 35.5 µM [inhibitor, single point] | –
41 | O=C(NC(=S)Nc1ccc(N2CCCCC2)c(Cl)c1)c1ccc2c(c1)OCCO2 | active: 10 µM | –
42 | C#CCOc1ccccc1CNC1CCN(Cc2ccccc2)CC1 | – | inactive: -1.14%
43 | CC(C)Cn1c(CN(Cc2ccccc2)Cc2ccccc2)nc2c1c(=O)n(C)c(=O)n2C | inconclusive: 35.5 µM [inhibitor, single point] | –
44 | CSc1ccccc1NC(=O)COC(=O)/C=C/c1ccco1 | inconclusive: 12.6 µM [inhibitor, partial curve] | –

In the list so far, two have bromine:
Row | SMILES | Potency | activity, negative = active
6 | Brc1ccc2nc(SCCOc3ccccc3)[nH]c2c1 | inconclusive: 35.5 µM [inhibitor, single point] | –
39 | CCNc1ccc(Br)cc(C(=O)/C=C/c2c(Cl)cccc2Cl)c1=O | inconclusive: 25.1 µM [inhibitor, single point] | –
